# Data as given in the supplement of paper PMC8728848.
# The list shows a part of the results.
# B1: AFL6 (Aspergillus fumigatus), Q4WKJ1 (protein)
# chain: MSFHLTAEDIRIEDGHRLVARLRNADGDLQDASIDLNTCLGNDNGHFQWDGVDFSHSAQDVHFAIEGGGQVPVLRAQLANQDGEFQDADVNLSERIENINGEFVFH
# Assays:
# Assay in all cases: glycan array binding signal (z-score within array); higher = stronger binding
# Details in all cases: glycan notation: IUPAC condensed, linker removed
# [1] = molecular target: Fuc(a1-2)[GalNAc(b1-3)]Gal
# In short: (§1)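 The binding signal is a Z-score computed within each array. Data were drawn from 3228 arrays in the Consortium for Functional Glycomics database, restricted to those with a known protein sequence. Scores were averaged over arrays of the same protein sequence at different concentrations or buffers, and over linkers, and negative values can be taken as non-binding.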
# Fuc(a1-3)GlcNAc = molecular target: Fuc(a1-3)GlcNAc
# In short: as §1
# [2] = molecular target: Fuc(a1-3)[Gal(b1-4)]Glc6S
# In short: as §1
# [3] = molecular target: Fuc(a1-3)[Gal(b1-4)]GlcNAc
# In short: as §1
# [4] = molecular target: Fuc(a1-3)[Gal(b1-4)]GlcNAc(b1-2)Man
# In short: as §1
# [5] = molecular target: Fuc(a1-3)[Gal(b1-4)]GlcNAc(b1-2)Man(a1-3)[Fuc(a1-3)[Gal(b1-4)]GlcNAc(b1-2)Man(a1-6)]Man(b1-4)GlcNAc(b1-4)GlcNAc
# In short: as §1
# [6] = molecular target: Fuc(a1-3)[Gal(b1-4)]GlcNAc(b1-2)Man(a1-3)[Fuc(a1-3)[Gal(b1-4)]GlcNAc(b1-2)Man(a1-6)]Man(b1-4)GlcNAc(b1-4)[Fuc(a1-6)]GlcNAc
# In short: as §1
# [7] = molecular target: Fuc(a1-3)[Gal(b1-4)]GlcNAc(b1-3)Gal(b1-3)[Fuc(a1-4)]GlcNAc
# In short: as §1
# [8] = molecular target: Fuc(a1-3)[Gal(b1-4)]GlcNAc(b1-3)Gal(b1-4)[Fuc(a1-3)]GlcNAc
# In short: as §1
# [9] = molecular target: Fuc(a1-3)[Gal(b1-4)]GlcNAc(b1-3)Gal(b1-4)[Fuc(a1-3)]GlcNAc(b1-3)Gal(b1-4)[Fuc(a1-3)]GlcNAc
# In short: as §1
# [10] = molecular target: Fuc(a1-3)[Gal(b1-4)]GlcNAc(b1-3)GalNAc
# In short: as §1
# [11] = molecular target: Fuc(a1-3)[Gal(b1-4)]GlcNAc(b1-6)GalNAc
# In short: as §1
# [12] = molecular target: Fuc(a1-3)[Gal(b1-4)]GlcNAc(b1-6)[Gal(b1-3)GlcNAc(b1-3)]Gal(b1-4)Glc
# In short: as §1
# [13] = molecular target: Fuc(a1-3)[Gal(b1-4)]GlcNAc6S
# In short: as §1
# [14] = molecular target: Fuc(a1-3)[Gal3S(b1-4)]Glc
# In short: as §1
# [15] = molecular target: Fuc(a1-3)[Gal3S(b1-4)]GlcNAc
# In short: as §1
# [16] = molecular target: Fuc(a1-3)[Gal3S(b1-4)]GlcNAc6S
# In short: as §1
# [17] = molecular target: Fuc(a1-3)[GalNAc(b1-4)]GlcNAc
# In short: as §1
# [18] = molecular target: Fuc(a1-3)[GalNAc(b1-4)]GlcNAc6S
# In short: as §1
# Fuc(a1-4)GlcNAc = molecular target: Fuc(a1-4)GlcNAc
# In short: as §1
# Fuc(b1-3)GlcNAc = molecular target: Fuc(b1-3)GlcNAc
# In short: as §1
# Gal(a1-2)Gal = molecular target: Gal(a1-2)Gal
# In short: as §1
# Gal(a1-3)Gal = molecular target: Gal(a1-3)Gal
# In short: as §1
# Gal(a1-3)Gal(b1-3)GlcNAc = molecular target: Gal(a1-3)Gal(b1-3)GlcNAc
# In short: as §1
# [19] = molecular target: Gal(a1-3)Gal(b1-3)GlcNAc(b1-2)Man
# In short: as §1
# [20] = molecular target: Gal(a1-3)Gal(b1-3)GlcNAc(b1-2)Man(a1-3)[Gal(a1-3)Gal(b1-3)GlcNAc(b1-2)Man(a1-6)]Man(b1-4)GlcNAc(b1-4)GlcNAc
# In short: as §1
# [21] = molecular target: Gal(a1-3)Gal(b1-3)GlcNAc(b1-3)GalNAc
# In short: as §1
# [22] = molecular target: Gal(a1-3)Gal(b1-3)GlcNAc(b1-6)GalNAc
# In short: as §1
# [23] = molecular target: Gal(a1-3)Gal(b1-3)[Fuc(a1-4)]GlcNAc(b1-2)Man(a1-3)[Gal(a1-3)Gal(b1-3)[Fuc(a1-4)]GlcNAc(b1-2)Man(a1-6)]Man(b1-4)GlcNAc(b1-4)GlcNAc
# In short: as §1
# Gal(a1-3)Gal(b1-4)Glc = molecular target: Gal(a1-3)Gal(b1-4)Glc
# In short: as §1
# Gal(a1-3)Gal(b1-4)GlcNAc = molecular target: Gal(a1-3)Gal(b1-4)GlcNAc
# In short: as §1
# [24] = molecular target: Gal(a1-3)Gal(b1-4)GlcNAc(b1-2)Man
# In short: as §1
# [25] = molecular target: Gal(a1-3)Gal(b1-4)GlcNAc(b1-2)Man(a1-3)[Gal(a1-3)Gal(b1-4)GlcNAc(b1-2)Man(a1-6)]Man(b1-4)GlcNAc(b1-4)GlcNAc
# In short: as §1
# [26] = molecular target: Gal(a1-3)Gal(b1-4)GlcNAc(b1-3)GalNAc
# In short: as §1
# [27] = molecular target: Gal(a1-3)Gal(b1-4)GlcNAc(b1-6)GalNAc
# In short: as §1
# [28] = molecular target: Gal(a1-3)Gal(b1-4)[Fuc(a1-3)]GlcNAc
# In short: as §1
# [29] = molecular target: Gal(a1-3)Gal(b1-4)[Fuc(a1-3)]GlcNAc(b1-2)Man(a1-3)[Gal(a1-3)Gal(b1-4)[Fuc(a1-3)]GlcNAc(b1-2)Man(a1-6)]Man(b1-4)GlcNAc(b1-4)GlcNAc
# In short: as §1
# Gal(a1-3)GalNAc = molecular target: Gal(a1-3)GalNAc
# In short: as §1
# [30] = molecular target: Gal(a1-3)[Gal(a1-4)]Gal(b1-4)GlcNAc
# In short: as §1
# [31] = molecular target: Gal(a1-4)Gal(b1-3)GlcNAc(b1-2)Man(a1-3)[Gal(a1-4)Gal(b1-3)GlcNAc(b1-2)Man(a1-6)]Man(b1-4)GlcNAc(b1-4)GlcNAc
# In short: as §1
# Gal(a1-4)Gal(b1-4)Glc = molecular target: Gal(a1-4)Gal(b1-4)Glc
# In short: as §1
# Gal(a1-4)Gal(b1-4)GlcNAc = molecular target: Gal(a1-4)Gal(b1-4)GlcNAc
# In short: as §1
# [32] = molecular target: Gal(a1-4)Gal(b1-4)GlcNAc(b1-2)Man(a1-3)[Gal(a1-4)Gal(b1-4)GlcNAc(b1-2)Man(a1-6)]Man(b1-4)GlcNAc(b1-4)GlcNAc
# In short: as §1
# [33] = molecular target: Gal(a1-4)Gal(b1-4)GlcNAc(b1-3)Gal(b1-4)Glc
# In short: as §1
# Gal(a1-4)GlcNAc = molecular target: Gal(a1-4)GlcNAc
# In short: as §1
binder,measurement,setting,value
B1,glycan array binding signal (z-score),[1],-0.373
same,glycan array binding signal (z-score),Fuc(a1-3)GlcNAc,-0.133
same,glycan array binding signal (z-score),[2],-0.213
same,glycan array binding signal (z-score),[3],-0.472
same,glycan array binding signal (z-score),[4],0.417
same,glycan array binding signal (z-score),[5],-0.027
same,glycan array binding signal (z-score),[6],0.415
same,glycan array binding signal (z-score),[7],-0.054
same,glycan array binding signal (z-score),[8],-0.438
same,glycan array binding signal (z-score),[9],-0.778
same,glycan array binding signal (z-score),[10],-0.214
same,glycan array binding signal (z-score),[11],0.436
same,glycan array binding signal (z-score),[12],0.098
same,glycan array binding signal (z-score),[13],0.001
same,glycan array binding signal (z-score),[14],-0.247
same,glycan array binding signal (z-score),[15],-0.662
same,glycan array binding signal (z-score),[16],-0.346
same,glycan array binding signal (z-score),[17],0.658
same,glycan array binding signal (z-score),[18],-0.791
same,glycan array binding signal (z-score),Fuc(a1-4)GlcNAc,-0.188
same,glycan array binding signal (z-score),Fuc(b1-3)GlcNAc,0.271
same,glycan array binding signal (z-score),Gal(a1-2)Gal,-0.764
same,glycan array binding signal (z-score),Gal(a1-3)Gal,-0.227
same,glycan array binding signal (z-score),Gal(a1-3)Gal(b1-3)GlcNAc,-0.536
same,glycan array binding signal (z-score),[19],-0.467
same,glycan array binding signal (z-score),[20],0.406
same,glycan array binding signal (z-score),[21],0.065
same,glycan array binding signal (z-score),[22],-0.422
same,glycan array binding signal (z-score),[23],1.62
same,glycan array binding signal (z-score),Gal(a1-3)Gal(b1-4)Glc,-0.277
same,glycan array binding signal (z-score),Gal(a1-3)Gal(b1-4)GlcNAc,-0.297
same,glycan array binding signal (z-score),[24],-0.237
same,glycan array binding signal (z-score),[25],0.5
same,glycan array binding signal (z-score),[26],-0.902
same,glycan array binding signal (z-score),[27],-0.405
same,glycan array binding signal (z-score),[28],-0.643
same,glycan array binding signal (z-score),[29],1.2
same,glycan array binding signal (z-score),Gal(a1-3)GalNAc,-0.331
same,glycan array binding signal (z-score),[30],0.059
same,glycan array binding signal (z-score),[31],-0.225
same,glycan array binding signal (z-score),Gal(a1-4)Gal(b1-4)Glc,-0.252
same,glycan array binding signal (z-score),Gal(a1-4)Gal(b1-4)GlcNAc,0.039
same,glycan array binding signal (z-score),[32],0.205
same,glycan array binding signal (z-score),[33],0.039
same,glycan array binding signal (z-score),Gal(a1-4)GlcNAc,-0.561

# Some of the entries so far, with bars between the fields:
binder | measurement | setting | value
B1 | glycan array binding signal (z-score) | [19] | -0.467
same | glycan array binding signal (z-score) | [20] | 0.406
same | glycan array binding signal (z-score) | [21] | 0.065
same | glycan array binding signal (z-score) | [22] | -0.422
